Experimental data as given in US20140221340A1 (KYOWA HAKKO KIRIN CO., LTD., priority 2011, published 2014).
Some results were stated once for a whole list of compounds, not compound by compound. At least one structure is not confirmed: it was looked up by name or label, or the drawing left a doubt.

target: T1, human CCR10 (Homo sapiens, UniProt P46092); assay: Calcium assay of human CCR10 (inhibition of CTACK-induced increase in intracellular calcium ion concentration in hCCR10G16 cells); format: cell-based; conditions: at a concentration of 100 nmol/L; human recombinant CTACK
T1 construct: expressed in transfected cells; host or cells: KJMGER8 cell (cell line derived from Namalwa cell); expression induced with 10 nmol/L β-estradiol
T1 sequence (P46092 1-362): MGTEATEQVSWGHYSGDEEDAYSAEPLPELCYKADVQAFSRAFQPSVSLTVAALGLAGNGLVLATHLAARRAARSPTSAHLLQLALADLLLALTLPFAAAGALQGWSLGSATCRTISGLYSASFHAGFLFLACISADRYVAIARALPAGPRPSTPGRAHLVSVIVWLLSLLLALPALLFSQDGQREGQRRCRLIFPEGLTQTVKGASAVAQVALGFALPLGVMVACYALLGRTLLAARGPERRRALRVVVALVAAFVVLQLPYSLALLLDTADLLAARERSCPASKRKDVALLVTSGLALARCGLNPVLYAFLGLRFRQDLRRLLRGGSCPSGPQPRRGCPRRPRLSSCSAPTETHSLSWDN
Procedure: A CCR10-inducible expression plasmid was produced according to a known method (“Analytical Biochemistry”, 2006, vol. 400, page 163). A DNA encoding human CCR10 was obtained by PCR. Using human chromosomal DNA (100 ng; manufactured by Clontech Laboratories, Inc.) as a template, a synthetic DNA having the sequences shown by SEQ ID NOs: 1 and 2 as a human CCR10 cDNA specific primer, and Pyrobest DNA Polymerase (manufactured by TAKARA SHUZO CO. LTD.) as an enzyme, a DNA encoding human CCR10 was obtained by PCR. As a buffer solution for PCR, the buffer solution attached to the enzyme was diluted 10-fold with deionized water and used. Using Thermal Cycler DNA Engine (manufactured by MJ Research), PCR was performed by 35 cycles of reactions composed of an incubation at 90° C. for 2 min, at 94° C. for 30 seconds, at an anneal temperature of 58° C. for 30 seconds, and at 72° C. for 1 min.
The amplified PCR fragment was cleaved with HindIII and NotI, then a human CCR10 DNA fragment was recovered by an agarose gel electrophoresis method. The fragment was incorporated in between the corresponding restriction enzyme sites (HindIII-NotI) of an inducible expression vector, whereby a human CCR10-inducible expression plasmid were prepared.
Using a primer specific to the sequence of the plasmid (synthetic DNA having the sequences shown by SEQ ID NOs: 3 and 4), the sequence of human CCR10 DNA region was determined. For the determination of the base sequence, DNA sequencer 377 (manufactured by PerkinElmer) and a reaction kit (ABI Prism (registered trade mark) BigDye (registered trade mark) Terminator Cycle Sequencing Ready Reaction kit: manufactured by Applied Biosystems) were used. The sequence of human CCR10 DNA matched with the sequence (NM_016602) registered in GenBank.
Cells for the detection of the signal from human CCR10 by a calcium assay were prepared. Human CCR10-inducible expressing cells whose host cell is KJMGER8 cell (cell line derived from Namalwa cell) were prepared according to a known method (“Analy Biochem”, 2006, vol. 400, page 163). Human CCR10-inducible expression plasmid produced above and Gα16 expression plasmid were co-transfected into KJMGER8 cell by an electroporation method (“Cytotechnology”, 1990, vol. 3, page 133), whereby a signal from human CCR10 could be detected by a calcium assay (hereinafter to be referred to as hCCR10G16 cell). Gα16 expression plasmid was produced by incorporating human Gα16 DNA into expression vector pAMoh (WO03/087366). Induced expression of human CCR10 was performed by cultivating hCCR10G16 cells in the presence of 10 nmol/L β-estradiol (manufactured by Sigma Ltd.) for 24 hr.
Cells expressing human CCR10 induced by the above-mentioned method were suspended in RPMI1640 medium and adjusted to cell density of 1.25×10^6 cells/mL. This mixture was dispensed to a 384 well clear bottom plate (manufactured by Corning Incorporated) at 20 μL/well, and these were incubated at 37° C. for several dozen minutes. A loading buffer prepared according to the protocol attached to FLIPR Calcium 3 assay kit (manufactured by Molecular Device) was dispensed to this plate at 20 μL/well, and the plate was incubated at 37° C. for 60 min. A 33 μmol/L DMSO solution of the test compound was diluted 37-fold with RPMI1640 medium and the resulting solution was added at 5 μL/well, and the mixture was incubated at 37° C. for 30 min. 300 nmol/L human recombinant CTACK (manufactured by R and D Systems) diluted with RPMI1640 medium containing 1 w/v % bovine serum albumin was added at 5 μL/well. Change of the intracellular calcium ion concentration for about 5 min after the addition was measured by FLIPR (manufactured by Molecular Device) or FDSS (manufactured by Hamamatsu Photonics K.K.). The difference between the maximum fluorescence intensity and the minimum fluorescence intensity for 5 min was calculated, and taken as the measurement value (maximum fluorescence intensity−minimum fluorescence intensity). […]

| SMILES | antagonistic effect against CCR10 |
| --- | --- |
| CC(=O)NS(=O)(=O)c1cnn2c(Nc3cc(C)ccc3Cl)c(C(=O)N3CCC4(CC3)OCc3ccccc34)cnc12 [a-55, N-{7-(2-Chloro-5-methylphenylamino)-6-[3H-spiro(isobenzofuran-1,4′-piperidine)-1′-carbonyl]pyrazolo[1,5-a]pyrimidin-3-ylsulfonyl}acetamide] | showed an antagonistic effect against CCR10 |
| COC(=O)NS(=O)(=O)c1cnn2c(Nc3ccccc3Cl)c(C(=O)N3CCC(c4ccccc4)CC3)cnc12 [a-8, Methyl 7-(2-chlorophenylamino)-6-(4-phenylpiperidine-1-carbonyl)pyrazolo[1,5-a]pyrimidin-3-ylsulfonylcarbamate] | showed an antagonistic effect against CCR10 |
| CCNC(=O)NS(=O)(=O)c1cnn2c(Nc3cc(C)c(F)cc3Cl)c(C(=O)N3CCC(c4ccc(F)cc4)CC3)cnc12 [a-42, 7-(2-Chloro-4-fluoro-5-methylphenylamino)-N-(ethylcarbamoyl)-6-[4-(4-fluorophenyl)piperidine-1-carbonyl]pyrazolo[1,5-a]pyrimidine-3-sulfonamide] | showed an antagonistic effect against CCR10 |
| COC(=O)NS(=O)(=O)c1cnn2c(Nc3cc(C)ccc3C)c(C(=O)N3CCC(c4ccccc4)CC3)cnc12 [a-74, Methyl 7-(2,5-dimethylphenylamino)-6-(4-phenylpiperidine-1-carbonyl)pyrazolo[1,5-a]pyrimidin-3-ylsulfonylcarbamate] | showed an antagonistic effect against CCR10 |
| Cc1cc(F)ccc1Nc1c(C(=O)N2CCC(c3ccccc3)CC2)cnc2c(S(=O)(=O)NS(C)(=O)=O)cnn12 [a-71, 7-(4-Fluoro-2-methylphenylamino)-N-methylsulfonyl-6-(4-phenylpiperidine-1-carbonyl)pyrazolo[1,5-a]pyrimidine-3-sulfonamide] | showed an antagonistic effect against CCR10 |
| CCC(=O)NS(=O)(=O)c1cnn2c(Nc3cc(Cl)ccc3Cl)c(C(=O)N3CCC4(CC3)OCc3ccccc34)cnc12 [a-53, N-{7-(2,5-Dichlorophenylamino)-6-[3H-spiro(isobenzofuran-1,4′-piperidine)-1′-carbonyl]pyrazolo[1,5-a]pyrimidin-3-ylsulfonyl}propionamide] | showed an antagonistic effect against CCR10 |
| CCC(=O)NS(=O)(=O)c1cnn2c(Nc3cc(C)ccc3F)c(C(=O)N3CCC4(CC3)OCc3ccccc34)cnc12 [a-51, N-{7-(2-Fluoro-5-methylphenylamino)-6-[3H-spiro(isobenzofuran-1,4′-piperidine)-1′-carbonyl]pyrazolo[1,5-a]pyrimidin-3-ylsulfonyl}propionamide] | showed an antagonistic effect against CCR10 |
| CCC(=O)NS(=O)(=O)c1cnn2c(Nc3ccc(F)cc3Cl)c(C(=O)N3CCC4(CC3)OCc3ccccc34)cnc12 [a-50, N-{7-(2-Chloro-4-fluorophenylamino)-6-[3H-spiro(isobenzofuran-1,4′-piperidine)-1′-carbonyl]pyrazolo[1,5-a]pyrimidin-3-ylsulfonyl}propionamide] | showed an antagonistic effect against CCR10 |
| CCNC(=O)NS(=O)(=O)c1cnn2c(Nc3ccc(F)cc3C)c(C(=O)N3CCC4(CC3)OCc3ccccc34)cnc12 [a-43, 7-(4-Fluoro-2-methylphenylamino)-N-(ethylcarbamoyl)-6-[3H-spiro(isobenzofuran-1,4′-piperidine)-1′-carbonyl]pyrazolo[1,5-a]pyrimidine-3-sulfonamide] | showed an antagonistic effect against CCR10 |
| CCC(=O)NS(=O)(=O)c1cnn2c(Nc3cc(F)ccc3F)c(C(=O)N3CCC(c4ccc(F)cc4)CC3)cnc12 [a-36, N-{7-(2,5-Difluorophenylamino)-6-[4-(4-fluorophenyl)piperidine-1-carbonyl]pyrazolo[1,5-a]pyrimidin-3-ylsulfonyl}propionamide] | showed an antagonistic effect against CCR10 |
| Cc1cc(F)ccc1Nc1c(C(=O)N2CCC(c3ccccc3)CC2)cnc2c(S(=O)(=O)NC(=O)N3CCOCC3)cnn12 [a-68, N-[7-(4-Fluoro-2-methylphenylamino)-6-(4-phenylpiperidine-1-carbonyl)pyrazolo[1,5-a]pyrimidin-3-ylsulfonyl]morpholine-4-carboxamide] | showed an antagonistic effect against CCR10 |
| O=C(NS(=O)(=O)c1cnn2c(Nc3cc(Cl)ccc3Cl)c(C(=O)N3CCC4(CC3)OCc3ccccc34)cnc12)C1CC1 [a-54, N-{7-(2,5-Dichlorophenylamino)-6-[3H-spiro(isobenzofuran-1,4′-piperidine)-1′-carbonyl]pyrazolo[1,5-a]pyrimidin-3-ylsulfonyl}cyclopropanecarboxamide] | showed an antagonistic effect against CCR10 |
| CCNC(=O)NS(=O)(=O)c1cnn2c(Nc3ccccc3Cl)c(C(=O)N3CCC(c4ccccc4)CC3)cnc12 [a-7, 7-(2-Chlorophenylamino)-N-(ethylcarbamoyl)-6-(4-phenylpiperidine-1-carbonyl)pyrazolo[1,5-a]pyrimidine-3-sulfonamide] | showed an antagonistic effect against CCR10 |
| Cc1ccc(Cl)c(Nc2c(C(=O)N3CCC4(CC3)OCc3ccccc34)cnc3c(S(=O)(=O)NC(=O)NCC(F)(F)F)cnn23)c1 [a-82, 7-(2-Chloro-5-methylphenylamino)-6-[3H-spiro(isobenzofuran-1,4′-piperidine)-1′-carbonyl]-N-(2,2,2-trifluoroethylcarbamoyl)pyrazolo[1,5-a]pyrimidine-3-sulfonamide] | showed an antagonistic effect against CCR10 |
| CC(=O)NS(=O)(=O)c1cnn2c(Nc3cc(Cl)ccc3Cl)c(C(=O)N3CCC(c4ccc(F)cc4)CC3)cnc12 [a-24, N-{7-(2,5-Dichlorophenylamino)-6-[4-(4-fluorophenyl)piperidine-1-carbonyl]pyrazolo[1,5-a]pyrimidin-3-ylsulfonyl}acetamide] | showed an antagonistic effect against CCR10 |
| Cc1cc(F)ccc1Nc1c(C(=O)N2CCC(c3ccccc3)CC2)cnc2c(S(=O)(=O)NC(=O)C3CC3)cnn12 [a-1, N-[7-(4-Fluoro-2-methylphenylamino)-6-(4-phenylpiperidine-1-carbonyl)pyrazolo[1,5-a]pyrimidin-3-ylsulfonyl]cyclopropanecarboxamide] | showed an antagonistic effect against CCR10 |
| CCC(=O)NS(=O)(=O)c1cnn2c(Nc3ccc(C)cc3F)c(C(=O)N3CCC4(CC3)OCc3ccccc34)cnc12 [a-48, N-{7-(2-Fluoro-4-methylphenylamino)-6-[3H-spiro(isobenzofuran-1,4′-piperidine)-1′-carbonyl]pyrazolo[1,5-a]pyrimidin-3-ylsulfonyl}propionamide] | showed an antagonistic effect against CCR10 |
